Data from publication doi:10.1101/156059.
These are yes or no findings as the source states them, for the method shown. In cells and extracts the contact can be indirect. Binding calls can cover weak binding; strength is not graded here.

Molecular target: 1600002H07Rik-LAP (mouse)
Assay: co-IP

| binding | Binder |
| --- | --- |
| binds | ε-tubulin (TUBE1) (protein, UniProt Q9D6T1 1-475) MTQSVVVQVGQCGNQIGCCFWDLALREHAAVNQKGIYDDAISSFFRNVDTRAVGDGGSISKGRISSLKARAVLIDMEEGVVNEILQGPLRDVFDSKQLITDISGSGNNWAVGHKVFGCLYREQILEKLRKSAEQCDCLQCFFIIHSMGGGTGSGLGTFLLKVLEDEFPEVYRFVTAVYPSSEDDVITSPYNSMLAMKELNEHADCVLPIDNQSLFDIISKIDLVVNSGKLGSAVKPKSLITSNMGAVKKHHKKPFDAMNNIVANLLLSLTSSARFEGSLNMDLNEISMNLVPFPKLHYLVSSLTPLYTLADVNIPPRRLDQMFSDAFSKDHQLIQADPRHSLYLACALIVRGNVQISDLRRNIERLKPALQFVSWNQEGWKTSLCSVPPVGHSHSLLALANNTCVKPTFMELRERFTRLYKKKAHLHHYLQVDGMEESTFTEAVSSLSALIQEYSDLDATKSLPVPDVPRLSVAL |
| binds | δ-tubulin (TUBD1) (protein, UniProt Q9R1K7 1-455) MSIVTVQLGQCGNQIGFEVFDALFRDSHCSQGLCSKRDNEAYQASCRERFFREEENGVPVARAVLVDMEPKVINQTLSKAAQSGRWNYGQHTSFCQKQGSGNNWAYGYSVHGPKHEESIMNLIQTEVEKCDSLSGFFIIMSMAGGTGSGLGAFVTQKLQDQYSSSLKMNQIIWPYGTGEVIVQNYNSILTLSHLYRSSDALLIHENDAVHKICAKRMNIKQISFRDLNQVLAHQLGSVFQPTYSEDSSFHYRRNPLGDLMEHLVPHPEFKMLGVRNIPQMSAASLAYSAFTWAGLLKHLRQMLISSAKMEEGINWQVRPPLTGLPPIGKASAHKEHHFNTSLANLVVLRGREVHSADVEGFKDPALYTSWLEPVDAFSVWKTQRAFDKYEKSAALVSNSQLLVKPLDMIVGKAWNMFSSKAFIHQYTKFGMEEEDFLDSFALLEQVVASYGSLGP |
